# Data published in the supplement of paper PMC10849652.
# Amino acid sequences for entries named in this document (tags omitted). A change or cut given only in a name is not applied to a line headed by its entry.
# UniProt Q96I51, whole entry, looked up: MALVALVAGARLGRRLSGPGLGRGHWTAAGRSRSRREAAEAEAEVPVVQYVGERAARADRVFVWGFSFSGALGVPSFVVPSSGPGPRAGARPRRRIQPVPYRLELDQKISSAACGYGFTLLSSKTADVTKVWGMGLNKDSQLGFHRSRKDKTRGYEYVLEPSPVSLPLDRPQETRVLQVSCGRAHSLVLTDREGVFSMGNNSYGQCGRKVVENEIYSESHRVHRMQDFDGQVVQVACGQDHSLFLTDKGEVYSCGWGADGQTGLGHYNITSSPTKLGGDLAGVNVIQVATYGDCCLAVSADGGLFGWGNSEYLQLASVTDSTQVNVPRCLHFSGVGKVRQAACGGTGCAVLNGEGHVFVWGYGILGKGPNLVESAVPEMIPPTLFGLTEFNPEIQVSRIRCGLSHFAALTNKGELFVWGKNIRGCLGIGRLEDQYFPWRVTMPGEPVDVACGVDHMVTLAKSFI
# UniProt P28749: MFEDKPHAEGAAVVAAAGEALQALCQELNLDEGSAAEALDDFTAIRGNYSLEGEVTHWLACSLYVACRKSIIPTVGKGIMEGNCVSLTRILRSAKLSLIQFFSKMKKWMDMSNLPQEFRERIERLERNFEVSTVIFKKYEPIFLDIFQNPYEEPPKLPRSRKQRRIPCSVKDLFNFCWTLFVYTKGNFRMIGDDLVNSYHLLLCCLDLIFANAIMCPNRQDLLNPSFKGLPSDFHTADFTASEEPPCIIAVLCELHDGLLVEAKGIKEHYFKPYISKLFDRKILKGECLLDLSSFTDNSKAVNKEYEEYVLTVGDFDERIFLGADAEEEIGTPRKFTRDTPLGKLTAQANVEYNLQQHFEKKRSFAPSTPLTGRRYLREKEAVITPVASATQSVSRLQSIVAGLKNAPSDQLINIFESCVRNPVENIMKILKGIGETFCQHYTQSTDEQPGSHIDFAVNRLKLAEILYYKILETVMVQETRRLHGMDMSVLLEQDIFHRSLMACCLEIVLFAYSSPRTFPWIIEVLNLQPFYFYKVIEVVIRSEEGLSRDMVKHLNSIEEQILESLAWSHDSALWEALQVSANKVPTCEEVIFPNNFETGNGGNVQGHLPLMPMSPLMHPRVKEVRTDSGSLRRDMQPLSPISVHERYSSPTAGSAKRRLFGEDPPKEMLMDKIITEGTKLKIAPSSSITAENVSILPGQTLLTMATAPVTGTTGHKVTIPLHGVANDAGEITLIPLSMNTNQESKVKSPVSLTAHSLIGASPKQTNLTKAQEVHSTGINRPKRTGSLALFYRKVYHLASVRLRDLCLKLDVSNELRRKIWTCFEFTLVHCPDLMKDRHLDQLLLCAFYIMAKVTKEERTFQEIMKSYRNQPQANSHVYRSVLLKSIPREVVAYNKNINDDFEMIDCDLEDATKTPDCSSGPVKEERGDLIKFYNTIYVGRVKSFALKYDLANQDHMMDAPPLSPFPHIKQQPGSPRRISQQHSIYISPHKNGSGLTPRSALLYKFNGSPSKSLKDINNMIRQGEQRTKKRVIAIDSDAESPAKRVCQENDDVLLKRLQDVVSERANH
# UniProt Q9NW13: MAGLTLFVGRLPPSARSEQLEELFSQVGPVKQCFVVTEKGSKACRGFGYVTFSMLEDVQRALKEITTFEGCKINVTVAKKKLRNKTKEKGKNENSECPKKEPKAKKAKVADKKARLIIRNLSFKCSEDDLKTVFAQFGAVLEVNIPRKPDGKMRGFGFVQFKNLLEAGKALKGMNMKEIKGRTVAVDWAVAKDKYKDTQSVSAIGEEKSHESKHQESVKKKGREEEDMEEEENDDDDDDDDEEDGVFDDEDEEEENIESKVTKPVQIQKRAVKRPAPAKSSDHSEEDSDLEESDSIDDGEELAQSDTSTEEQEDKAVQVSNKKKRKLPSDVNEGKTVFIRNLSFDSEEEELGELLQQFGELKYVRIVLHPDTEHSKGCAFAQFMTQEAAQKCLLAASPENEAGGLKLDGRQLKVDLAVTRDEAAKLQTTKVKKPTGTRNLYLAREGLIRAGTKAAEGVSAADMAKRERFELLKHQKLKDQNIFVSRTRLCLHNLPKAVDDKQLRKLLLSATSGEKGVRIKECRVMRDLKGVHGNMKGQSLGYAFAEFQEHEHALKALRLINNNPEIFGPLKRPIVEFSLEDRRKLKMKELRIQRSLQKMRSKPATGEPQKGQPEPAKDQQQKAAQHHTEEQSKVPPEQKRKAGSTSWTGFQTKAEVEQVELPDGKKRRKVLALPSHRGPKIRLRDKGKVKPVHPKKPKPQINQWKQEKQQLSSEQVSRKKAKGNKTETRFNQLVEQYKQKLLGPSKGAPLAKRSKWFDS
# UniProt Q6JBY9, whole entry, looked up: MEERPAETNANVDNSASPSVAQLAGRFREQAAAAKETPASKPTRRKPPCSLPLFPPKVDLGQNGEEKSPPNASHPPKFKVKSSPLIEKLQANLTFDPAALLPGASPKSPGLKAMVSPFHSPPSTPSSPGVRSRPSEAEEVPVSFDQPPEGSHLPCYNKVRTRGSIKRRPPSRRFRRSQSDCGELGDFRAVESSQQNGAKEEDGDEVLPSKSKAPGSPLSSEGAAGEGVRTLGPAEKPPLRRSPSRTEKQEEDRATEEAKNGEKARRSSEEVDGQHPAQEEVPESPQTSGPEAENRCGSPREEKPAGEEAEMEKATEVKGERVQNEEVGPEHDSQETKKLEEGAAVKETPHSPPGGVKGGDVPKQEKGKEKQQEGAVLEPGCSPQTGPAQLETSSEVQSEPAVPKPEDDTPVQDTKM
# UniProt P51606: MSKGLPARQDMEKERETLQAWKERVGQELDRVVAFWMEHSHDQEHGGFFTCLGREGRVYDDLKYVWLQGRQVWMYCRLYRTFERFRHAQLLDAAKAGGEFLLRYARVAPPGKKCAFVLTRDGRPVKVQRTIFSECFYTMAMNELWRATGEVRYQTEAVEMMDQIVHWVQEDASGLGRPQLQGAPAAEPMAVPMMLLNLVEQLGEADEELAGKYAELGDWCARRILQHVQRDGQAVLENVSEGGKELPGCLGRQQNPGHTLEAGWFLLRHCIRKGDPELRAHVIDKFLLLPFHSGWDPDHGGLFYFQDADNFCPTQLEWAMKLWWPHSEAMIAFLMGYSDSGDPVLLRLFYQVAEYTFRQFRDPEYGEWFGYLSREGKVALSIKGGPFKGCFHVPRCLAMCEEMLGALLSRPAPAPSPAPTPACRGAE
# UniProt P78509: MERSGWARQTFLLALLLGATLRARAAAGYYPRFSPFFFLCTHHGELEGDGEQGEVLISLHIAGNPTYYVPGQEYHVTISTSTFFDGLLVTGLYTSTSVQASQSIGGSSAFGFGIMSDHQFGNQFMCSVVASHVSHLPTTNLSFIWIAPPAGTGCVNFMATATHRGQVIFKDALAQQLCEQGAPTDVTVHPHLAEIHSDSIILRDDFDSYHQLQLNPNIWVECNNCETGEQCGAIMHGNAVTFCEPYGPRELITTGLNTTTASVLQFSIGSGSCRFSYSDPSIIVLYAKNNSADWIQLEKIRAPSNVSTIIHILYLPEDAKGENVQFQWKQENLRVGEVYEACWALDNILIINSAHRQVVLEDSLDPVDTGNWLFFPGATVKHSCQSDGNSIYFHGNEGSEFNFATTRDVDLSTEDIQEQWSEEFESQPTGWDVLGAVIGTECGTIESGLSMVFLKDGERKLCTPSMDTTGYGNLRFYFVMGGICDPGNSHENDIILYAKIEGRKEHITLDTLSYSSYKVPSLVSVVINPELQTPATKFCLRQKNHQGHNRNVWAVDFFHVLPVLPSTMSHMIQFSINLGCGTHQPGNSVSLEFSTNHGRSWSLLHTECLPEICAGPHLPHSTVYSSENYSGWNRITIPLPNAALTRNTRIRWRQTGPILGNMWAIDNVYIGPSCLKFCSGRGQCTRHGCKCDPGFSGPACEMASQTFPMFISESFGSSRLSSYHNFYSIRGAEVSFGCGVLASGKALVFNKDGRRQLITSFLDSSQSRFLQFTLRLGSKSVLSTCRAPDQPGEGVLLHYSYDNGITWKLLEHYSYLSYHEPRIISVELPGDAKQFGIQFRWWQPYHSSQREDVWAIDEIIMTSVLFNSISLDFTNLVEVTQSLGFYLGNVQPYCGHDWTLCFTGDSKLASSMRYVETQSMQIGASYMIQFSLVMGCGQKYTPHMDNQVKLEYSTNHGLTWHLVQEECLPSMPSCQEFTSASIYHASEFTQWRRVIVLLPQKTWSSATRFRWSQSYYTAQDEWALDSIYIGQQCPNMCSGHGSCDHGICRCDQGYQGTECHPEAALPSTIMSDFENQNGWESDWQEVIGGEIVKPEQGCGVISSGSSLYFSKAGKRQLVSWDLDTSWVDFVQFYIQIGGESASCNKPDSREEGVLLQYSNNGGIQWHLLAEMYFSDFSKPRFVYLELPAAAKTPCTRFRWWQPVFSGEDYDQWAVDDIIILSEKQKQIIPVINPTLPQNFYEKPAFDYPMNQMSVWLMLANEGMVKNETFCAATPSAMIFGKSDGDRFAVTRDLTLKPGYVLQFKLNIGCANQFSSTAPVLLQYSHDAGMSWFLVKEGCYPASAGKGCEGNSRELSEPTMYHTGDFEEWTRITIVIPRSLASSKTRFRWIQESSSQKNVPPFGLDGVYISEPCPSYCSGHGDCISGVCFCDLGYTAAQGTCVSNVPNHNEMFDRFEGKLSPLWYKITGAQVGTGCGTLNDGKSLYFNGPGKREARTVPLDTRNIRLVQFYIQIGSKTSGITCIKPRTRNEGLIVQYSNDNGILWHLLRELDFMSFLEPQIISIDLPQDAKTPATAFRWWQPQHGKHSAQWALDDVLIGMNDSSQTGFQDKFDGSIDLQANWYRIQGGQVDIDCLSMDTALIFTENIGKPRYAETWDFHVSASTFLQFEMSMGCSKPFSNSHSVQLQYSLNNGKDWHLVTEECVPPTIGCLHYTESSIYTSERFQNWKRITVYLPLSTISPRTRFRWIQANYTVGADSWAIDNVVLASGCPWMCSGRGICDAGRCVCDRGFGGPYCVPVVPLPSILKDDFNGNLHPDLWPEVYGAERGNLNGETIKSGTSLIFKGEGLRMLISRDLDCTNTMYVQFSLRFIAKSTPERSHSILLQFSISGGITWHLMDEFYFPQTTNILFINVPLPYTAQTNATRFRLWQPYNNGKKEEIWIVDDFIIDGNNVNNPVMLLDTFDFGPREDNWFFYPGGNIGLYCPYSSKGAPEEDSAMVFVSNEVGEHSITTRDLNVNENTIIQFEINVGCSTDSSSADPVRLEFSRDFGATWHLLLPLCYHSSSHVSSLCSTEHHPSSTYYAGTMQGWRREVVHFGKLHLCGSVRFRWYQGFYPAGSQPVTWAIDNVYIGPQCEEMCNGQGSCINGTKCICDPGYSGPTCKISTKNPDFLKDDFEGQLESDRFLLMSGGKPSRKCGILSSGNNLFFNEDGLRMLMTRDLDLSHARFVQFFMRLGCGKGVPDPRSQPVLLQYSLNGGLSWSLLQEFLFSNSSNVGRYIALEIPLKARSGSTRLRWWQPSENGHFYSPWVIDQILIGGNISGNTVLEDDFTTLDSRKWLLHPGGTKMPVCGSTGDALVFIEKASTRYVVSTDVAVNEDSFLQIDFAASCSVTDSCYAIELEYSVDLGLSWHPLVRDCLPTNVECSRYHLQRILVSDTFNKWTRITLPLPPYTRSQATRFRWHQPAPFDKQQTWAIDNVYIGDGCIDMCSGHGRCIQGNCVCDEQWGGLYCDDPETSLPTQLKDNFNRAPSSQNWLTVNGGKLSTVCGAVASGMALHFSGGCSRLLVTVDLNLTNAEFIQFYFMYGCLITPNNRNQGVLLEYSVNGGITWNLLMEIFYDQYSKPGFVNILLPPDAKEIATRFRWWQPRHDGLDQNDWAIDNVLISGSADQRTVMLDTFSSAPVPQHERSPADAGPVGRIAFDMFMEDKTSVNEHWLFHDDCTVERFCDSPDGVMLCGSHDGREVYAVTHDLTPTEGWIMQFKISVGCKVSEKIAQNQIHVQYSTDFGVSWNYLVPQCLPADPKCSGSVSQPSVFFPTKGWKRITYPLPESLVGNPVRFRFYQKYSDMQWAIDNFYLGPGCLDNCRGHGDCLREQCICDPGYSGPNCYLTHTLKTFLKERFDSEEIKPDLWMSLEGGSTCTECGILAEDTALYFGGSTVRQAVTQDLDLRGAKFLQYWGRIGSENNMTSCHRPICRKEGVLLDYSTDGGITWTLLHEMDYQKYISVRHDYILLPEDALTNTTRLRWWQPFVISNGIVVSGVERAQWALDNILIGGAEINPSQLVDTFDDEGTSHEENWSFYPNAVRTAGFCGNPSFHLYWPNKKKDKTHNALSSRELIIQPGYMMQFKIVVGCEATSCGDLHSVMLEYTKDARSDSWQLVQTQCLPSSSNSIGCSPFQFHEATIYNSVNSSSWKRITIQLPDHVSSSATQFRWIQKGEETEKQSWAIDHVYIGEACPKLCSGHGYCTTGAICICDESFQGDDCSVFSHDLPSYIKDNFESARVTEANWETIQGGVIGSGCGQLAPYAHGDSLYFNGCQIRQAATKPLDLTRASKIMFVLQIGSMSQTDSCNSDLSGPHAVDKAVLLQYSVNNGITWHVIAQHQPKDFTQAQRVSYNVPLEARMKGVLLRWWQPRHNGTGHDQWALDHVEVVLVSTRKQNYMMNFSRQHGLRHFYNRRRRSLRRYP
# Some of the results follow.
# Compound: CS(=O)(=O)CCNCc1ccc(-c2ccc3ncnc(Nc4ccc(OCc5cccc(F)c5)c(Cl)c4)c3c2)o1 [lapatinib]
# Assay: log2 fold change, soluble protein after heating vs DMSO (PISA); higher = thermal stabilisation; K562 lysate, 10 uM; active = over 0.2 and 3.5 SD of the protein, either way, in both replicates (recomputed)
# In short: (§1)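 Quantification was by TMTpro 16plex LC-MS/MS with equalised channel sums, applied to the supernatant after 21,000xg for 90 min. Samples were crude K562 extract at 1 mg/mL protein in PBS pH 7.4 with 1 mM MgCl2, treated with 10 μM compound for 30 min, heated for 3 min across 48°C-58°C, pooled and brought to 0.5% NP-40 at 4°C. Values are log-two fold changes in thermal stability relative to solvent controls, from duplicates.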
row,Target,log2 fold change
1,REEP6 (UniProt Q96HR9),inactive: 0.066
2,RCC1L (UniProt Q96I51),inactive: 0.052
3,RDH10 (UniProt Q8IZV5),inactive: 0.004
4,RERE (UniProt Q9P2R6),inactive: 0.033
5,RCAN1 (UniProt P53805),inactive: -0.017
6,RARS2 (UniProt Q5T160),inactive: 0.011
7,RGS10 (UniProt O43665),inactive: -0.018
8,RFX5 (UniProt P48382),inactive: 0.034

# 4 entries from above, with bars between the fields.
row | Target | log2 fold change
1 | REEP6 (UniProt Q96HR9) | inactive: 0.066
2 | RCC1L (UniProt Q96I51) | inactive: 0.052
3 | RDH10 (UniProt Q8IZV5) | inactive: 0.004
4 | RERE (UniProt Q9P2R6) | inactive: 0.033

# Compound: CS(=O)(=O)N1CCN(Cc2cc3nc(-c4cccc5[nH]ncc45)nc(N4CCOCC4)c3s2)CC1 [pictilisib]
# Assay: as above
# In short: as §1
row,Target,log2 fold change
1,RBL1 (UniProt P28749),inactive: -0.016
2,RBBP4 (UniProt Q09028),inactive: -0.013
3,RCOR1 (UniProt Q9UKL0),inactive: -0.069
4,RBM33 (UniProt Q96EV2),inactive: -0.04
5,RFX1 (UniProt P22670),inactive: 0.015
6,RBM28 (UniProt Q9NW13),inactive: -0.018
7,RAVER1 (UniProt E9PAU2),inactive: 0.067
8,RCSD1 (UniProt Q6JBY9),inactive: 0.003
9,RBM39 (UniProt Q14498),inactive: 0.025
10,RFT1 (UniProt Q96AA3),inactive: 0.01
11,RENBP (UniProt P51606),inactive: -0.012
12,RECQL5 (UniProt O94762),inactive: 0.06
13,RELN (UniProt P78509),inactive: 0.047
14,RFXAP (UniProt O00287),inactive: -0.064
15,RASA3 (UniProt Q14644),inactive: -0.044
16,REPS1 (UniProt Q96D71),inactive: -0.007
